Measured values from ChEMBL document CHEMBL1125549, “Computer-aided mapping of the beta-adrenoceptor. 1. Explanation for effect of para substitution on blocking activity at the beta-1-adrenoceptor” (J Med Chem, 1992).

Amino acid sequences for entries named in this document (tags omitted).
UniProt B0FL73, whole entry: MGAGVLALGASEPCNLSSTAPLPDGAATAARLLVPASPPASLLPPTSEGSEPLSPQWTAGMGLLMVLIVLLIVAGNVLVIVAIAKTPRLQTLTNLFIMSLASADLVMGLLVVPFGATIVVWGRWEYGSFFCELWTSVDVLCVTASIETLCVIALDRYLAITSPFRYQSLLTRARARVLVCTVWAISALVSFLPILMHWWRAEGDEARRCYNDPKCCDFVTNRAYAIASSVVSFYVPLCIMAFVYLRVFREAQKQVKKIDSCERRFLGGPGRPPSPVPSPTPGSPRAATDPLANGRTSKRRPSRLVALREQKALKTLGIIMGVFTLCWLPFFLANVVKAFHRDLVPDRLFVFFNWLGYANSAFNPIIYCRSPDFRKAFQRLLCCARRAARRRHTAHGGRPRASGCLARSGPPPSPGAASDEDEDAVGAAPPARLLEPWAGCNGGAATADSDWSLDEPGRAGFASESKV

Molecular target: Beta-1 adrenergic receptor (Cavia porcellus, UniProt B0FL73)
Test: Activity at beta-1 adrenergic receptor
Conditions: read-out: pA2 (converted)

**Q.** How did the Kb turn out when CC(C)NCC(O)COc1ccc(CC(N)=O)cc1 (stereo unspecified) [ATENOLOL] was run?
**A.** 158 nM
